No constants are given. Whether binding was seen depends on the method and setting. Binding seen in cells or lysates may run through a third protein. Binding can be weak; no strength is given. Where a sequence is shown, tags or fusion partners need not be part of it.
Key:
[1] = target: nLUC-OsDES1 (rice (Oryza sativa L.)); assay: split reporter; split luciferase complementation; nLUC-OsDES1 and cLUC-LOG co-expressed in N. benthamiana leaves; luciferase activity tested 24 h after infiltration
[2] = target: GFP-OsDES1 (rice (Oryza sativa L.)); assay: co-IP; 35S:GFP-OsDES1 (or 35S:GFP) and 35S:Myc-LOG co-expressed in N. benthamiana; total protein extract incubated with GFP-Trap A agarose beads 60 min at 4 °C; immunoblot with anti-Myc and anti-GFP

| Binder | binding [1] | binding [2] |
| --- | --- | --- |
| cLUC-LOG (enzyme, UniProt Q5ZC82 1-242) MAMEAAAERSAGAGAAATAAPESGGGGAGERRSRFRRICVYCGSAKGRKASYQDAAVELGKELVERGIDLVYGGGSIGLMGLVSHAVHDGGRHVIGVIPKSLMPREVTGEPVGEVRAVSGMHERKAEMARFADAFIALPGGYGTLEELLEVITWAQLGIHKKPVGLLNVDGFYDPFLSFIDMAVSEGFIAEDARRIIISAPTARELVLKLEEYVPEYEVGLVWDDQMPHSFAPDLETRITSS | binds | – |
| Myc-LOG (enzyme, UniProt Q5ZC82 1-242) MAMEAAAERSAGAGAAATAAPESGGGGAGERRSRFRRICVYCGSAKGRKASYQDAAVELGKELVERGIDLVYGGGSIGLMGLVSHAVHDGGRHVIGVIPKSLMPREVTGEPVGEVRAVSGMHERKAEMARFADAFIALPGGYGTLEELLEVITWAQLGIHKKPVGLLNVDGFYDPFLSFIDMAVSEGFIAEDARRIIISAPTARELVLKLEEYVPEYEVGLVWDDQMPHSFAPDLETRITSS | – | binds |
